Data published in US20220033481A1 (NANJING LEGEND BIOTECH, published 2022).
Results are given in words; binding and its absence hold for the method and conditions named. Some results given as binding are weak or reduced against the parent protein; the word gives no strength.

Amino acid sequences for entries named in this document (tags omitted). Residues count along the entry.
UniProt P02787, residues 20-698: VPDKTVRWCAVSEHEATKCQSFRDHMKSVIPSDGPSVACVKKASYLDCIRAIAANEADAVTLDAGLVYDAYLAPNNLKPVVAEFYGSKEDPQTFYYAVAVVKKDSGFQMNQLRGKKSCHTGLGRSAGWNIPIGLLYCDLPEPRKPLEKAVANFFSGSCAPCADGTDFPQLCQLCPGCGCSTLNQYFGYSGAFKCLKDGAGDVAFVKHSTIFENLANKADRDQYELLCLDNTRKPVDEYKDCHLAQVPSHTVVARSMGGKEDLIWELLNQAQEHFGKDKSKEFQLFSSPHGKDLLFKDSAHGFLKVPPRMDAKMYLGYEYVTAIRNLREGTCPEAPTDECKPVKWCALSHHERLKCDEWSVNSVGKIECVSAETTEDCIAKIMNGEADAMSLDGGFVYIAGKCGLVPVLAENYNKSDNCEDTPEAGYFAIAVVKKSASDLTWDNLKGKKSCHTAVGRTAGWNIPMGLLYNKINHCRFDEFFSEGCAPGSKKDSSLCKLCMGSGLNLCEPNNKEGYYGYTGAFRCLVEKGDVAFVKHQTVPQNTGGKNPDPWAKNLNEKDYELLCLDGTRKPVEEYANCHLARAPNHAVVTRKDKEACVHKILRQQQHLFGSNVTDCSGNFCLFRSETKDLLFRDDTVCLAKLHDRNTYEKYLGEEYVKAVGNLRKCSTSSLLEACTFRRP

Target: human transferrin (human, UniProt P02787 20-698)
Test: SPR (BIAcore T200, CM5 chip); transferrin immobilised by amine coupling, sdAb injected

Binder	binding
AS01299VH3a-L47 (VHH, Humanized variant of AS01299, C-terminal 6xHis tag; also called AS01299VH3a-L47-2) VHH: EVQLVESGGGLVQPGGSLRLSCAASGSIFSIATMAWYRQAPGKGLEWVAGITRSGSTNYRDSVKGRFTISRDNSKNTMYLQMNSLRAEDTAVYYCTDYSSRYYHDYWGQGTLVTVSS	binds
AS01299VH4-L47 (VHH, Humanized variant of AS01299, C-terminal 6xHis tag; also called AS01299VH4-L47-2) VHH: EVQLVESGGGLVQPGGSLRLSCAASGSIFSIATMAWYRQAPGKGLEWVSGITRSGSTNYRDSVKGRFTISRDNSKNTLYLQMNSLRAEDTAVYYCTDYSSRYYHDYWGQGTLVTVSS	binds
